Assay [1] deals with T1, SnRK1α1-YFP^N (Arabidopsis thaliana) (UniProt Q38997).
T1 sequence: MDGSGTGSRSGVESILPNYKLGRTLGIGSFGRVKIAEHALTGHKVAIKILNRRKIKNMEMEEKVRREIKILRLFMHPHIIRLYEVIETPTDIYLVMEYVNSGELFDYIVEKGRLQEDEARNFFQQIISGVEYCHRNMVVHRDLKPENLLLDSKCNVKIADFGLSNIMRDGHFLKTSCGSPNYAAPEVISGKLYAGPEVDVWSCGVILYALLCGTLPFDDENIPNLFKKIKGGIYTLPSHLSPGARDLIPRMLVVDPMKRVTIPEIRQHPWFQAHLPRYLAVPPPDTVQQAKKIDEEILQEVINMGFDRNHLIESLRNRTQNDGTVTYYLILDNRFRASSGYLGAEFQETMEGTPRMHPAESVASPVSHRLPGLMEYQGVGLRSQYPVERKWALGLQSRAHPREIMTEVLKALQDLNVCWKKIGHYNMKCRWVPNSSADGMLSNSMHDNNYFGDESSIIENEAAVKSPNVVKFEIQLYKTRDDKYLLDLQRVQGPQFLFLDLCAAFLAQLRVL
The experiment in a line: split reporter; BiFC (split YFP) in roots of Arabidopsis seedlings, transient expression by cocultivation with Agrobacterium tumefaciens, 72 h.

Chains of the proteins cited; added tags and fusions are not shown.
UniProt Q94CL7: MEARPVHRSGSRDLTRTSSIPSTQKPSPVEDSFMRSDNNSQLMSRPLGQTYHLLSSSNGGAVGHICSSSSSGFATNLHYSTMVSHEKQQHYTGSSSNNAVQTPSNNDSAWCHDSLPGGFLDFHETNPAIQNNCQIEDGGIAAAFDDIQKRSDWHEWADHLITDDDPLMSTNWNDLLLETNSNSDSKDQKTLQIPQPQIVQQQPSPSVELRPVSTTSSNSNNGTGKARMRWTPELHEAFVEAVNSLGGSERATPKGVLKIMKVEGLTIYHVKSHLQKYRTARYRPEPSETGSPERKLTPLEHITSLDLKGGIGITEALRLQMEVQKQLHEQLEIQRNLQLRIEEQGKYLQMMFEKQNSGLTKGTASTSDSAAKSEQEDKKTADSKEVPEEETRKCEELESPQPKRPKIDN

Assay [2] deals with T2, SnRK1α2-YFP^N (Arabidopsis thaliana) (UniProt P92958).
T2 sequence: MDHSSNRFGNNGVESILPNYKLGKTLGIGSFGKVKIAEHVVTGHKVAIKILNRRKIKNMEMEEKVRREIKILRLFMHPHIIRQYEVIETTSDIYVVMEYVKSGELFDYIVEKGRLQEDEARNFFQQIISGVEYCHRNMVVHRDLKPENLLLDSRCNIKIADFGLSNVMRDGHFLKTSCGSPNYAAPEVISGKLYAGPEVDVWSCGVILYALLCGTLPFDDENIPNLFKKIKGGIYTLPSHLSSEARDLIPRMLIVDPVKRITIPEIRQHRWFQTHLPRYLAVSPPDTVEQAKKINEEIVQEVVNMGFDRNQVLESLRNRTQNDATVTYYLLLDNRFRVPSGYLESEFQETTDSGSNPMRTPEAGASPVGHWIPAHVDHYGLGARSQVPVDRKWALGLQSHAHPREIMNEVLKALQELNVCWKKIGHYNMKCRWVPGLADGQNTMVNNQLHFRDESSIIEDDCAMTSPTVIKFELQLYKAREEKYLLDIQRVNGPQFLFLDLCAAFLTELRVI
The assay is described as above.

Assay [3] addresses GST-SnRK1α1 catalytic (kinase) domain (Arabidopsis thaliana) (UniProt Q38997). Description: pull-down; recombinant GST-SnRK1α1/α2 incubated with PHR1-HIS in 20 mM Tris-HCl pH 7.5, 50 mM KCl, 5 mM EDTA, 5 mM MgCl2, 1 mM DTT, 2.5% glycerol, 0.05% NP-40, 2 h at 25°C; captured on GSH-agarose, eluted with 20 mM GSH; PHR1 detected with anti-HIS; both purified.
The target in assay [4] is T3, GST-SnRK1α2 catalytic (kinase) domain (Arabidopsis thaliana) (UniProt P92958).
T3 sequence: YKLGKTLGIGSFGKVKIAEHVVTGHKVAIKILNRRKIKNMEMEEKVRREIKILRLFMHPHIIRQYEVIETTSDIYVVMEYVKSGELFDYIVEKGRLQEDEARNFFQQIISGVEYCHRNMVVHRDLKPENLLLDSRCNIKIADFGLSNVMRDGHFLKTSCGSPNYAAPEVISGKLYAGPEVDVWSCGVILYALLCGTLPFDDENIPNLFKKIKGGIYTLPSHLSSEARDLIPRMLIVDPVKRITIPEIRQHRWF
The description is as above.

Assay [5] deals with T4, SnRK1α1 catalytic subunit (endogenous, Arabidopsis rosettes) (Arabidopsis thaliana (endogenous in rosettes)) (UniProt Q38997).
T4 sequence: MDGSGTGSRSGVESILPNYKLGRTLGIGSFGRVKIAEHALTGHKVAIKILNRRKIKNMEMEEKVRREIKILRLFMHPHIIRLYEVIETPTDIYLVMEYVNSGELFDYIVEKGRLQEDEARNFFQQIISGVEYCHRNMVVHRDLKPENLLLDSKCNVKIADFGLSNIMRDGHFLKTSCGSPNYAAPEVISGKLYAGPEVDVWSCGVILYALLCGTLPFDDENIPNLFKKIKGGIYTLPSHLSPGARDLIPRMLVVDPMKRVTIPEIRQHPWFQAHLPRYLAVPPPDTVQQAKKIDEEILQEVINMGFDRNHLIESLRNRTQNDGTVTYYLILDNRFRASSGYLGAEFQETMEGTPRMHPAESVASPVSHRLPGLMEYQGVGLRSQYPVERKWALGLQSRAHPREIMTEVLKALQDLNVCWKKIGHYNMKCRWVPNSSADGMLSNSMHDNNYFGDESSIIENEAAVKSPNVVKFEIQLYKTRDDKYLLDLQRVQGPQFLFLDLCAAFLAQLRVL
Description: SEC; S-300 gel filtration of the 50% ammonium sulfate fraction of rosette extract of plants grown under Pi-deficient (−Pi) conditions; fractions of the SnRK1 activity peak (250-150 kDa) blotted with antibodies against the SnRK1 subunits.

The target in assay [6] is T4, SnRK1α1 catalytic subunit (endogenous, Arabidopsis rosettes) (Arabidopsis thaliana (endogenous in rosettes)). Description: condition: only plants grown under Pi-sufficient (+Pi) conditions; SEC; S-300 gel filtration of the 50% ammonium sulfate fraction of rosette extract of plants grown under Pi-sufficient (+Pi) conditions; fractions of the SnRK1 activity peak blotted with antibodies against the SnRK1 subunits.

For six molecules, binding results are on record in publication PMC10107491, “Phosphorylation of S11 in PHR1 negatively controls its transcriptional activity”.

These are yes or no findings as the source states them, for the method shown. For some of these results: Binding seen in cells or lysates may run through a third protein. Some binding calls cover weakened binding; strength is not graded here. For some of these results: Tags and fused reporters may be left off the sequences shown.

Take PHR1-YFP^C (from UniProt Q94CL7 1-409): the binding result in assay [1] and in assay [2] was “binds” in each case.

“PHR1-HIS (full-length Phosphate starvation response 1, recombinant) (from UniProt Q94CL7 1-409)”: the binding entry in assay [3] and in assay [4] was “binds” in each case.

B1: SnRK1β1 regulatory subunit (endogenous, Arabidopsis rosettes) (protein, UniProt Q84VQ1 1-283)
chain: MGNANGKDEDAAAGSGGADVTSSSARSNGGDPSARSRHRRPSSDSMSSSPPGSPARSPSPFLFAPQVPVAPLQRANAPPPNNIQWNQSQRVFDNPPEQGIPTIITWNQGGNDVAVEGSWDNWRSRKKLQKSGKDHSILFVLPSGIYHYKVIVDGESKYIPDLPFVADEVGNVCNILDVHNFVPENPESIVEFEAPPSPDHSYGQTLPAAEDYAKEPLAVPPQLHLTLLGTTEETAIATKPQHVVLNHVFIEQGWTPQSIVALGLTHRFESKYITVVLYKPLTR
Turning to B1, the binding result in assay [5] is listed as “binds”.

B2: SnRK1βγ regulatory subunit (endogenous, Arabidopsis rosettes) (protein, UniProt Q944A6 1-487)
chain: MFGSTLDSSRGNSAASGQLLTPTRFVWPYGGRRVFLSGSFTRWTEHVPMSPLEGCPTVFQVICNLTPGYHQYKFFVDGEWRHDEHQPFVSGNGGVVNTIFITGPDMVPAGFSPETLGRSNMDVDDVFLRTADPSQEAVPRMSGVDLELSRHRISVLLSTRTAYELLPESGKVIALDVNLPVKQAFHILYEQGIPLAPLWDFGKGQFVGVLGPLDFILILRELGTHGSNLTEEELETHTIAAWKEGKAHISRQYDGSGRPYPRPLVQVGPYDNLKDVALKILQNKVAAVPVIYSSLQDGSYPQLLHLASLSGILKCICRYFRHSSSSLPILQQPICSIPLGTWVPRIGESSSKPLATLRPHASLGSALALLVQAEVSSIPVVDDNDSLIDIYSRSDITALAKDKAYAQIHLDDMTVHQALQLGQDASPPYGIFNGQRCHMCLRSDSLVKVMERLANPGVRRLVIVEAGSKRVEGIISLSDVFQFLLGL
Consider B2, for which the binding result in assay [5] was “binds”.

B3: SnRK1β3 regulatory subunit (endogenous, Arabidopsis rosettes) (protein, UniProt Q9ZUU8 1-114)
chain: MNSQNPDDHEDTTVVGFEVPVSPVSSYNNVYSSTEDETRDPPAVPPHLQHSLLGNQGSMELAYAPQNVVLNHLYIENRDAPRSVVALGFSHRFRTKFVTVVIYKPVQRRGSANV
In the case of B3, the binding result in assay [5] is given as “binds”; in assay [6], “no binding”.

B4: SnRK1β2 regulatory subunit (endogenous, Arabidopsis rosettes) (protein, UniProt Q9SCY5 1-289)
chain: MGNVNAREEANSNNASAVEDEDAEICSREAMSAASDGNHVAPPELMGQSPPHSPRATQSPLMFAPQVPVLPLQRPDEIHIPNPSWMQSPSSLYEEASNEQGIPTMITWCHGGKEIAVEGSWDNWKTRSRLQRSGKDFTIMKVLPSGVYEYRFIVDGQWRHAPELPLARDDAGNTFNILDLQDYVPEDIQSISGFEPPQSPENSYSNLLLGAEDYSKEPPVVPPHLQMTLLNLPAANPDIPSPLPRPQHVILNHLYMQKGKSGPSVVALGSTHRFLAKYVTVVLYKSLQR
In the case of B4, the binding entry is “binds” in assay [5] and “no binding” in assay [6].
